From patent US20070248536A1
No constants are given. Whether binding was seen depends on the method and setting. Binding calls can cover weak binding; strength is not graded here.

How the values were obtained:
[1] = biological target: proNGF; experiment: SDS PAGE of fractions of the SPC7-E9 affinity column, elution with glycine pH 2.2
[2] = biological target: proNGF; experiment: affinity chromatography, SPC7-E9 coupled to Fractogel EMD Epoxy, elution with 0.1 M glycine pH 2.2
[3] = biological target: proNGF; experiment: ELISA, plate coated with 10 µg/ml proNGF, detection with anti-human gamma-II-crystallin antibody-POD conjugate
[4] = biological target: proNGF; experiment: affinity chromatography, SPC7-E9 coupled to Fractogel EMD Epoxy, 400 µg purified proNGF applied, elution with 0.1 M glycine pH 2.2
[5] = biological target: proNGF; experiment: Biacore; by example 8 SPC7-E9 coupled by NHS/EDC to a CM5 chip and proNGF passed over it; the legend names a chip with proNGF

Measured: binding

B1: Affilin variation SPC7-E9 (designed binder)
chain: MGFICFLEDRAFQGRSYACDTDCPNLQPYFSRCNSISVLSGCWMIYERPNYQGHQYFLRRGEYPDYQQWMGLSDSIRSCCLIPPHSGAYRMKIYDRDELRGQMSELTDDCLSVQDRFHLTEIHSLNVLEGSWILYEMPNYRGRQYLLRPGEYRRFLDWGAPNAKVGSLRRVMDLYLEHHHHHH
binds: [1] | [2] | [3] | [4] | [5]
